Source: article PMC6331118
Results are given in words; binding and its absence hold for the method and conditions named.

T1: Rab32 wt (pAS 2-1-Rab32 wt, two-hybrid bait) (UniProt Q13637)
T1 sequence: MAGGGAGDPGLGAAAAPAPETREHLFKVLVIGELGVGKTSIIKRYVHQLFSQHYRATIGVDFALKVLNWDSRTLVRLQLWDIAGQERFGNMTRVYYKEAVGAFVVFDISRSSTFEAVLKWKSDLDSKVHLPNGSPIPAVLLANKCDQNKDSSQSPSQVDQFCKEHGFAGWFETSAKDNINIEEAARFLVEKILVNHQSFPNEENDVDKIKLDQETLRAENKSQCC

T2: Rab38 wt (pAS 2-1-Rab38 wt, two-hybrid bait) (UniProt P57729)
T2 sequence: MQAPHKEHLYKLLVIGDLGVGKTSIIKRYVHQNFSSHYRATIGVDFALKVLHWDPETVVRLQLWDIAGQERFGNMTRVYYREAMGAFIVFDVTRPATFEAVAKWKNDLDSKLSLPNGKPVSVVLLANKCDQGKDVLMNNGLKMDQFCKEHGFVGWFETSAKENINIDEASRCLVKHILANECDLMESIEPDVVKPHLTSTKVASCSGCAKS

T3: Rab32 wt (pAS 2-1-Rab32 wt, two-hybrid bait), Q13637
T3 chain: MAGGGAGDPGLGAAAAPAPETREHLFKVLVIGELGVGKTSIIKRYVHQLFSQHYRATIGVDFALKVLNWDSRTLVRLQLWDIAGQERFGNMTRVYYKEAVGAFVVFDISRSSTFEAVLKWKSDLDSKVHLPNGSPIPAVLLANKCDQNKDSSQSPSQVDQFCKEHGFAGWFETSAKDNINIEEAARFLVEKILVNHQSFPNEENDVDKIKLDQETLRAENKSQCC

T4: Rab38 wt (pAS 2-1-Rab38 wt, two-hybrid bait), P57729
T4 chain: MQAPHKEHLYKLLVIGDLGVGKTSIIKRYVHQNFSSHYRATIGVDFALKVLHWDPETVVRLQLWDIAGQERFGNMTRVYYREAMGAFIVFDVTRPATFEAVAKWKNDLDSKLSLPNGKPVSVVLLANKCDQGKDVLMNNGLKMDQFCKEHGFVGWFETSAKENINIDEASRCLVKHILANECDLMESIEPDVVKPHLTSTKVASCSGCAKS


Legend:
Experiment in all cases: two-hybrid; co-transformation, yeast strain Gold as printed; growth on -AT plates and blue colour in β-Gal filter lift assay; Rab32 or Rab38 wt as bait, sorting nexins as prey
[1] = target: T1, Rab32 wt (pAS 2-1-Rab32 wt, two-hybrid bait)
[2] = target: T2, Rab38 wt (pAS 2-1-Rab38 wt, two-hybrid bait)
[3] = target: T3, Rab32 wt (pAS 2-1-Rab32 wt, two-hybrid …); details: remark: other sources report otherwise
[4] = target: T4, Rab38 wt (pAS 2-1-Rab38 wt, two-hybrid …); details: remark: other sources report otherwise

binding [1]	binding [2]	binding [3]	binding [4]	Molecule
no binding	no binding			SNX1, full length (pGADT7-SNX1, two-hybrid prey) (from UniProt Q13596-1 1-522)
no binding	no binding			SNX32, full length (pGADT7-SNX32, two-hybrid prey) (protein, UniProt Q86XE0-1 1-403) METYAEVGKEGKPSCASVDLQGDSSLQVEISDAVSERDKVKFTVQTKSCLPHFAQTEFSVVRQHEEFIWLHDAYVENEEYAGLIIPPAPPRPDFEASREKLQKLGEGDSSVTREEFAKMKQELEAEYLAIFKKTVAMHEVFLQRLAAHPTLRRDHNFFVFLEYGQDLSVRGKNRKELLGGFLRNIVKSADEALITGMSGLKEVDDFFEHERTFLLEYHTRIRDACLRADRVMRAHKCLADDYIPISAALSSLGTQEVNQLRTSFLKLAELFERLRKLEGRVASDEDLKLSDMLRYYMRDSQAAKDLLYRRLRALADYENANKALDKARTRNREVRPAESHQQLCCQRFERLSDSAKQELMDFKSRRVSSFRKNLIELAELELKHAKASTLILRNTLVALKGEP
no binding	no binding			SNX2, full length (pGADT7-SNX2, two-hybrid prey) (protein, UniProt O60749-1 1-519) MAAEREPPPLGDGKPTDFEDLEDGEDLFTSTVSTLESSPSSPEPASLPAEDISANSNGPKPTEVVLDDDREDLFAEATEEVSLDSPEREPILSSEPSPAVTPVTPTTLIAPRIESKSMSAPVIFDRSREEIEEEANGDIFDIEIGVSDPEKVGDGMNAYMAYRVTTKTSLSMFSKSEFSVKRRFSDFLGLHSKLASKYLHVGYIVPPAPEKSIVGMTKVKVGKEDSSSTEFVEKRRAALERYLQRTVKHPTLLQDPDLRQFLESSELPRAVNTQALSGAGILRMVNKAADAVNKMTIKMNESDAWFEEKQQQFENLDQQLRKLHVSVEALVCHRKELSANTAAFAKSAAMLGNSEDHTALSRALSQLAEVEEKIDQLHQEQAFADFYMFSELLSDYIRLIAAVKGVFDHRMKCWQKWEDAQITLLKKREAEAKMMVANKPDKIQQAKNEIREWEAKVQQGERDFEQISKTIRKEVGRFEKERVKDFKTVIIKYLESLVQTQQQLIKYWEAFLPEAKAIA
		no binding	no binding	SNX5, full length (pGADT7-SNX5, two-hybrid prey), Q9Y5X3-1 1-404 (protein) MAAVPELLQQQEEDRSKLRSVSVDLNVDPSLQIDIPDALSERDKVKFTVHTKTTLPTFQSPEFSVTRQHEDFVWLHDTLIETTDYAGLIIPPAPTKPDFDGPREKMQKLGEGEGSMTKEEFAKMKQELEAEYLAVFKKTVSSHEVFLQRLSSHPVLSKDRNFHVFLEYDQDLSVRRKNTKEMFGGFFKSVVKSADEVLFTGVKEVDDFFEQEKNFLINYYNRIKDSCVKADKMTRSHKNVADDYIHTAACLHSLALEEPTVIKKYLLKVAELFEKLRKVEGRVSSDEDLKLTELLRYYMLNIEAAKDLLYRRTKALIDYENSNKALDKARLKSKDVKLAEAHQQECCQKFEQLSESAKEELINFKRKRVAAFRKNLIEMSELEIKHARNNVSLLQSCIDLFKNN
